Results are given in words; binding and its absence hold for the method and conditions named. In cells and extracts the contact can be indirect. Some results given as binding are weak or reduced against the parent protein; the word gives no strength.
What was measured:
[1] = biological target: keratin 16 (human (endogenous in human OSCC lines)) (UniProt P08779); assay: co-IP; endogenous proteins in lysates of three OSCC lines (RIPA buffer: 150 mM NaCl, 1% Nonidet P-40, 0.5% deoxycholic acid, 0.1% SDS, 50 mM Tris-HCl pH 8.0); reciprocal IP with the indicated antibodies and blotting; IgG as negative control
[2] = biological target: β5-integrin (human (endogenous in human OSCC lines)) (UniProt P18084); assay: as above

Chains of the proteins cited; added tags and fusions are not shown. Residues count along the entry.
UniProt P08779: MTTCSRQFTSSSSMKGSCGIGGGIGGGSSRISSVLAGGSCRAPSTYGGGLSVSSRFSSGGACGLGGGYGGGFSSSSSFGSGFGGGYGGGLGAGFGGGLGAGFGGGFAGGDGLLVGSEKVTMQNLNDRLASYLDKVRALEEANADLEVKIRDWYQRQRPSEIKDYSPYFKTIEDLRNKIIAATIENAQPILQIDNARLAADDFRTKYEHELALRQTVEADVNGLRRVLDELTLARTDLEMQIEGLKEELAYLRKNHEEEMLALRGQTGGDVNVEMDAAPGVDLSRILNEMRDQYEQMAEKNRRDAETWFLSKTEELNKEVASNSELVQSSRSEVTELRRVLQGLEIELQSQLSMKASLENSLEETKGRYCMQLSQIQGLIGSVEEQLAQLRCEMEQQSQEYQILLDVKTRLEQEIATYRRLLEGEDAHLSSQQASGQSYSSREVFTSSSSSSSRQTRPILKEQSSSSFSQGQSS
UniProt P18084, residues 24-799: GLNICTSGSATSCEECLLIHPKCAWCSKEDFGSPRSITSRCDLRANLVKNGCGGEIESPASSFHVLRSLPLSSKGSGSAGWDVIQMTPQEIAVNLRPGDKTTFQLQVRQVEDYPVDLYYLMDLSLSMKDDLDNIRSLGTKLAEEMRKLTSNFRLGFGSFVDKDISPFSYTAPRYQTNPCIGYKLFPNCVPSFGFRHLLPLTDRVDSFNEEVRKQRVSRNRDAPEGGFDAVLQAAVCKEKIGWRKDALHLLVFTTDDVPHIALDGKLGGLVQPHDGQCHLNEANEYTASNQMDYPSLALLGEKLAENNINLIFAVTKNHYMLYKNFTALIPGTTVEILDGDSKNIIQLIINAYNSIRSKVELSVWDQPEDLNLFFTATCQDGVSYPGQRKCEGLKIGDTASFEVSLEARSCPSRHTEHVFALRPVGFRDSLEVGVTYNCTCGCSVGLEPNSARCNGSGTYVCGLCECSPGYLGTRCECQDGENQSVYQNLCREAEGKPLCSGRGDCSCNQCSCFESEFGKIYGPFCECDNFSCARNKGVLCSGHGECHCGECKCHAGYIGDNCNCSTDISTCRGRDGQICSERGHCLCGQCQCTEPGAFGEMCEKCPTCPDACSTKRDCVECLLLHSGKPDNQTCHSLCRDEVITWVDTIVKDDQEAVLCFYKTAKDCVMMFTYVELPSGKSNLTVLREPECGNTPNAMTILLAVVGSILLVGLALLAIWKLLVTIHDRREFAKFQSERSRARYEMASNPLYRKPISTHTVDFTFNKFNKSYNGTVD
UniProt P08581, residues 25-1390: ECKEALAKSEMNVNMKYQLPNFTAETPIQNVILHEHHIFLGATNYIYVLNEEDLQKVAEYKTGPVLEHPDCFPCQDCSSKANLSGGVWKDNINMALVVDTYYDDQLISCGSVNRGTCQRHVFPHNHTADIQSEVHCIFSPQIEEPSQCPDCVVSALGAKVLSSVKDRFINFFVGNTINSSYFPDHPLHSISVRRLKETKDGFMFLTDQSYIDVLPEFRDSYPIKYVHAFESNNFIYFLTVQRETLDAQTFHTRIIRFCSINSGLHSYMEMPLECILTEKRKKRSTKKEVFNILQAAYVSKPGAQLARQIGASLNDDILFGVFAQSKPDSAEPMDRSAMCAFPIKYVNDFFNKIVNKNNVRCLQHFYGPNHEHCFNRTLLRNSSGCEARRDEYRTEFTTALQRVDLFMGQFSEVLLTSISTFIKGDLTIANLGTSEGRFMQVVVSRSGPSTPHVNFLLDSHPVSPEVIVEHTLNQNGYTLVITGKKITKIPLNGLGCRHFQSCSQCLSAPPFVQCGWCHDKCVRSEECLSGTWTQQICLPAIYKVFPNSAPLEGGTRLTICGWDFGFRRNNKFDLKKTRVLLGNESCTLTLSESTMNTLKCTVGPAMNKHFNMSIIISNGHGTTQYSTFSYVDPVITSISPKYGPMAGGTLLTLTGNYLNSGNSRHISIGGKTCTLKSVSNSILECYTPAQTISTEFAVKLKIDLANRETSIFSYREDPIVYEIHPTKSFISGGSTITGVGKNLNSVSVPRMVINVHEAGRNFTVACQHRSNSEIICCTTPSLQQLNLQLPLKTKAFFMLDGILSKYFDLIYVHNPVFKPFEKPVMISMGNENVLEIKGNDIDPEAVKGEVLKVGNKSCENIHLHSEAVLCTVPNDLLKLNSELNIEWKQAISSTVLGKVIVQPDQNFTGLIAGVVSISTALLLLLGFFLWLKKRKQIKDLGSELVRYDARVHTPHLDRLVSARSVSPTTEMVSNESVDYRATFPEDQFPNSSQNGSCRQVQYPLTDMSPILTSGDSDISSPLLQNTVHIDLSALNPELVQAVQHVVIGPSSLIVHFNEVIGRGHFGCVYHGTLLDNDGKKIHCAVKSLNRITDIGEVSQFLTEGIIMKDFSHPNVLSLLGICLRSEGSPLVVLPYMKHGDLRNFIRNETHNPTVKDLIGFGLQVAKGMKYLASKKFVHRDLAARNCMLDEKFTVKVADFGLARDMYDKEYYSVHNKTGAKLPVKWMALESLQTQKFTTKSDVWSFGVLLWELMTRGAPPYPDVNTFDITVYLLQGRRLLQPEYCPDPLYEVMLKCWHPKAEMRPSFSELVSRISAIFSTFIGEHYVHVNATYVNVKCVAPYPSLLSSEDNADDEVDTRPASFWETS

- binding [1]: binds
- binding [2]: binds
Substance: c-Met (from UniProt P08581 25-1390) (receptor)

— paper PMC6381632
